# Test results as given in PubChem BioAssay AID504467 (National Center for Advancing Translational Sciences (NCATS), 2011).
# The whole screen tested about 330,000 compounds, of which about 7,700 (2.3%) were called active. This list was built around the results that the source calls inconclusive (neither active nor inactive); the mix of calls is not that of the screen. The call rests on the fitted dose curve; in most records, active means well fitted inhibition curve with a large enough effect; inconclusive means small, poorly fitted or top-dose-only effect, or effect the other way; inactive means flat fitted curve, though single readings scatter. Where the call is inconclusive, the potency comes from a doubtful curve fit.
# Experiment: qHTS screen for small molecules that inhibit ELG1-dependent DNA repair in human embryonic kidney (HEK293T) cells expressing luciferase-tagged ELG1; further: nearly all actives have a fitted effect of over 55% in size
# Settings: HEK293T ELG1-luciferase reporter, luminescence, 16 h, DNA damage induced by 5-fluorouridine; activity change, negative = inhibition: at 46.1 µM (top of the series)
# Method in brief: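 Cells (2,000 per well) received 5-fluorouridine plus test compound or DMSO and were incubated 16 hr at 37 °C, 5% CO2. Luciferase activity was read by luminescence 30 min after ONE-Glo addition; signal suppression marked inhibition of damage-induced ELG1 function.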
# On the % scale 0 is the no-effect control and ±100 the full control effect; potency means the concentration at half of the fitted maximal effect.
SMILES,Potency,"activity change, negative = inhibition"
COc1ccc(-c2csc(Nc3ccc(S(N)(=O)=O)cc3)n2)cc1,active: 16.4 µM,–
COc1ccc2c(c1OC)C(=O)OC2Nc1ncc(Br)cc1Br (stereo not drawn),"inconclusive: 14.6 µM [inhibitor, partial curve, poor fit]",–
COc1cc(CC(=O)NCc2ccc3c(c2)OCO3)cc(OC)c1OC,–,inactive: 0.106%
CN(C)c1ccc(C(=O)N2CCCC(N3CCN(Cc4ccc5c(c4)OCO5)CC3)C2)cc1 (stereo not drawn),–,inactive: -26%
O=C1NNC(c2ccccc2)=N/C1=C\c1ccccc1Cl,"inconclusive: 20.6 µM [inhibitor, single point]",–
CCOc1ccc(/C(CCC(=O)O)=N/NC(=S)NCCc2ccccc2)cc1,–,inactive: -7.39%
COc1ccc(OC)c(-n2nnnc2SCC(=O)Nc2ccc(C(=O)N3CCCCC3)cc2)c1,active: 23.1 µM,–
CC[C@]12c3[nH]c4cc(-c5ccco5)ccc4c3CCN1C(=O)[C@@H](CC(=O)NCCc1ccccn1)C[C@@H]2C(=O)N1CCN(C(=O)C2CC2)CC1,–,inactive: -14%
O=C(CNC(=O)c1ccc(Cl)cc1)NCc1ccccn1,–,inactive: 19.5%
Cc1cc(-n2nc(C)cc2C)n2ncc(-c3ccccc3)c2n1,"inconclusive: 35.5 µM [activator, single point]",–
CCOc1cc(C(N)=O)cc(Br)c1OCc1ccccc1,"inconclusive: 18.3 µM [inhibitor, partial curve, poor fit]",–
COC(=O)c1cc(NC(=O)C2CCCN(S(=O)(=O)c3c(C)n[nH]c3C)C2)cc(C(=O)OC)c1 (stereo not drawn),"inconclusive: 6.51 µM [inhibitor, single point]",–
COc1cccc(C(=O)NCCC2=CCCCC2)c1OC,"inconclusive: 6.51 µM [activator, single point]",–
CC(C)CC1NC(=O)c2ccccc2-n2c1nc1ccc(Cl)cc1c2=O (stereo not drawn),"inconclusive: 14.6 µM [activator, partial curve, poor fit]",–
COc1cccc(C(=O)Nc2ccc(NC(=O)c3ccco3)cn2)c1,"inconclusive: 18.4 µM [activator, partial curve]",–
CCOC(=O)c1c(C)nc(-c2ccccc2)nc1N,"inconclusive: 4.11 µM [activator, partial curve]",–
C=CCN(CC=C)Cc1ccc(C(=O)OC)o1,"inconclusive: 29.1 µM [inhibitor, single point]",–
C=CC[C@@H](CC(=O)N[C@H](CO)Cc1ccccc1)C(=O)N[C@@H](COC(=O)[C@H](CC=C)CC(=O)OC(C)(C)C)Cc1ccccc1,"inconclusive: 23.1 µM [inhibitor, partial curve, poor fit]",–
NS(=O)(=O)c1ccc(CCNC(=O)COC(=O)C2CCC2)cc1,–,inactive: 9.26%
Cc1ccccc1N1CC(C(=O)Nc2ccc(S(=O)(=O)N3CCCCC3)cc2)CC1=O (stereo not drawn),"inconclusive: 20.6 µM [inhibitor, single point]",–
CCN1C(=O)c2cccc3c(NC(=O)C(C)(C)C)ccc1c23,"inconclusive: 18.4 µM [activator, single point]",–
Cc1ccc(NC(=O)CN(C)CC(=O)Nc2ccc(F)c(Cl)c2)cc1,–,inactive: 8.97%
CCOC(=O)c1c(CN2CCN(c3ccccc3)CC2)oc2ccc(O)cc12,–,inactive: -26.8%

# Gathered by group, those above containing bromine.
SMILES,Potency,"activity change, negative = inhibition"
COc1ccc2c(c1OC)C(=O)OC2Nc1ncc(Br)cc1Br (stereo not drawn),"inconclusive: 14.6 µM [inhibitor, partial curve, poor fit]",–
CCOc1cc(C(N)=O)cc(Br)c1OCc1ccccc1,"inconclusive: 18.3 µM [inhibitor, partial curve, poor fit]",–

# Later entries:

SMILES,Potency,"activity change, negative = inhibition"
Nc1cc(S(=O)(=O)Nc2ccccc2Cl)ccc1N1CCOCC1,"inconclusive: 29.1 µM [inhibitor, single point]",–
O=C(Nc1cccc(-c2cnc3ccccc3n2)c1)c1ccncc1,"inconclusive: 29.1 µM [inhibitor, single point]",–
CC(C)NC(=O)c1cc(-c2ccc(Br)cc2)on1,"inconclusive: 8.2 µM [activator, partial curve]",–
Cc1c(Cl)cccc1NC(=O)c1cccc(NC(=O)CCC(=O)O)c1,"inconclusive: 25.9 µM [activator, partial curve, poor fit]",–
COC(=O)c1oc2ccc(OC)cc2c1N,"inconclusive: 20.6 µM [activator, single point]",–
O=C(OCC(=O)N1CCOCC1)c1cc(-c2ccccc2)nc2ccccc12,"inconclusive: 29.1 µM [inhibitor, single point]",–
Cc1nn(C)c(C)c1NC(=O)c1ccc(Br)o1,–,inactive: 10.9%
CCCN(Cc1cc2cc(OC)ccc2[nH]c1=O)C(=O)c1ccco1,"inconclusive: 32.6 µM [inhibitor, single point]",–
O=C1c2cccc3cccc(c23)C(=O)N1CC1CCN(CC(O)COc2ccc3ccccc3c2)CC1 (stereo not drawn),"inconclusive: 15.8 µM [activator, single point]",–
S=c1[nH]nc(-c2cccc(Cl)c2)n1/N=C/c1ccco1,–,inactive: 2.23%
CCc1cccc(NC(=O)CCNS(=O)(=O)c2ccc3c(c2)oc(=O)n3C)c1,–,inactive: 0.23%
CN(C)c1ccc(/C=C/c2ccc3ccccc3n2)cc1,"inconclusive: 0.0517 µM [activator, full curve, poor fit]",–
CC1CCN(c2c(NCC3CCC(C(=O)NCCCc4ccccc4)CC3)c(=O)c2=O)CC1 (stereo not drawn),active: 10.3 µM,–
COCCn1c(SCC(=O)Nc2cccc(OC)c2)nc2c(oc3ccccc32)c1=O,"inconclusive: 23.1 µM [inhibitor, partial curve]",–
COc1cc(/C=C2\SC(=S)N(Nc3ccccc3)C2=O)ccc1O,"inconclusive: 18.4 µM [activator, partial curve]",–
C=CC[C@H](CC(=O)N(CCO)Cc1ccccc1)C(=O)N[C@@H](C)COC(=O)[C@H](CC=C)CC(=O)OC(C)(C)C,active: 23.1 µM,–
COCCN(C(=S)Nc1cccc(C)c1)C(C)c1cccnc1 (stereo not drawn),–,inactive: 12.2%
Cc1cc(Cl)ccc1C(=O)C1CCCN(C(=O)c2cnsn2)C1 (stereo not drawn),"inconclusive: 25.9 µM [inhibitor, partial curve, poor fit]",–
COc1ccc(OC)c(Nc2nc(-c3sc(NC(=O)CC(C)C)nc3C)cs2)c1,"inconclusive: 13 µM [inhibitor, partial curve]",–
CCOc1ccc(C(C)=O)cc1CN1C(=O)c2ccccc2S1(=O)=O,–,inactive: 4.52%
Cc1noc(/C=C/c2ccc(-c3ccccc3Cl)o2)c1[N+](=O)[O-],"inconclusive: 25.9 µM [activator, single point]",–
Cc1ccnc(NC(=O)c2cccc(S(=O)(=O)N3CCCc4ccccc43)c2)c1,"inconclusive: 0.73 µM [activator, full curve, poor fit]",–
COc1ccc(C(CC(=O)N2CCCC(C)C2)c2c(OC)cc(OC)c3ccc(=O)oc23)cc1 (stereo not drawn),–,inactive: -27.1%

SMILES,Potency,"activity change, negative = inhibition"
Cc1c(Cl)ccc2c1NC(=O)[C@]21[C@@H]2C(=O)N(Cc3ccccc3)C(=O)[C@@H]2[C@@H]2CCCN21,"inconclusive: 29.1 µM [inhibitor, single point]",–
COc1ccc(-c2nc(C#N)c(N3CCCCCC3)o2)cc1,"inconclusive: 20.6 µM [inhibitor, single point]",–
CC(=O)Nc1ccc(S(=O)(=O)N2CCN(C(=O)Cc3ccccc3)CC2)cc1,"inconclusive: 14.6 µM [inhibitor, partial curve, poor fit]",–
CCN1CCN(CCCNc2ncnc3nc[nH]c23)CC1,"inconclusive: 9.2 µM [activator, partial curve, poor fit]",–
CC1(C)Cc2nc3sc4c(SCC(=O)NCc5ccccc5)ncnc4c3cc2CO1,"inconclusive: 7.31 µM [activator, partial curve]",–
CC1(CC(=O)N/N=C/c2ccc(OCc3ccc(Cl)cc3Cl)cc2)OCCCO1,"inconclusive: 20.6 µM [activator, single point]",–
O=S1(=O)C=C(Sc2nc3ccccc3s2)c2ccccc21,"inconclusive: 25.9 µM [inhibitor, single point]",–
Cc1ccc(Nc2nnc(SCC(=O)c3c(N)n(C4CC4)c(=O)[nH]c3=O)s2)cc1C,–,inactive: -22.4%
CCN(CC)c1ccc(NC(=O)c2cc3c(OC)cccc3[nH]2)cc1,–,inactive: -1.54%
Cc1ccc(S(=O)(=O)Nc2cccc(C(=O)NCc3cccnc3)c2)cc1F,–,inactive: -20.6%
Cc1ccc(CNC(=O)C2CCCN2C(=O)Nc2ccccc2)cc1 (stereo not drawn),–,inactive: -13.1%
CN1CCN(c2ccc([N+](=O)[O-])cc2/C=N/NC(=O)c2cccc([N+](=O)[O-])c2)CC1,"inconclusive: 6.51 µM [inhibitor, partial curve, poor fit]",–
CS(=O)(=O)N1CCCC(C(=O)N2CCc3ccccc3C2)C1 (stereo not drawn),–,inactive: 25.4%
Cc1c(N2C(=O)/C(=C3\C(=O)N(CC(=O)O)c4ccccc43)SC2=S)c(=O)n(-c2ccccc2)n1C,"inconclusive: 23.1 µM [activator, partial curve]",–
COc1ccc(CCNC(=O)c2cc3sc(Cl)cc3n2C)cc1OC,"inconclusive: 23.1 µM [inhibitor, single point]",–
O=C(/C=C/c1ccc(Cl)cc1)NC1CC2CCC1C2 (stereo not drawn),"inconclusive: 29.1 µM [activator, single point]",–
Cc1nc(SCC(=O)N2CCN(C(=O)c3cccs3)CC2)c2c(C)c(C)sc2n1,"inconclusive: 6.51 µM [inhibitor, partial curve]",–
CCCCCN(C(=O)COC(=O)c1ccc(C)cc1)c1c(N)n(CCCC)c(=O)[nH]c1=O,–,inactive: -8.54%
COc1cc(OC)cc(-c2c(C#Cc3ccsc3)c3cc(-c4cc(OC)c(OC)c(OC)c4)ccc3n2C)c1,–,inactive: -10.3%
O=C(Nc1ccc(-c2ccc3nncn3n2)cc1)C1CCCC1,"inconclusive: 20.6 µM [activator, partial curve]",–
Cc1cc[n+](-c2ccccc2)c2ccccc12,active: 10.3 µM,–
CC1(C)NC(C)(C)/C(=C\c2cccs2)C(=O)C1=O,"inconclusive: 18.3 µM [activator, partial curve, poor fit]",–
